The campaign covered roughly 240,000 compounds. About 1,300 (0.54%) were called active. This list was built around the results that the source calls inconclusive (neither active nor inactive); the mix of calls is not that of the screen. Calls come from the whole dose curve; as a rule, active = well fitted inhibition curve with a large enough effect; inconclusive = small, poorly fitted or top-dose-only effect; inactive = flat fitted curve, though single readings scatter. A potency beside an inconclusive call is a rough fit, not a confirmed value. Some compounds were tested as several samples or in several runs, with calls that do not always agree.
target: ATP-dependent DNA helicase Q1 (Homo sapiens) (UniProt P46063); test: qHTS Assay for Inhibitors of RecQ-Like Dna Helicase 1 (RECQ1); conditions: RECQ1 DNA unwinding, red fluorescence kinetic read; series mostly up to 57.3 µM; note: nearly all actives have a fitted effect of over 30% in size
In short: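 RECQ1T1 50 nM; forked duplex (20 bp + 30-nt ss tails) 200 nM, ATP 2 mM final; pH 8.0, 2 mM MgCl2, 2.5 ug/ml poly(dI-dC); 15 min compound preincubation; discontinuous kinetic read over 2 h at RT.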
Potency is the fitted concentration of half-maximal effect.

Amino acid sequences for entries named in this document (tags omitted). A change or cut given only in a name is not applied to a line headed by its entry.
UniProt P46063: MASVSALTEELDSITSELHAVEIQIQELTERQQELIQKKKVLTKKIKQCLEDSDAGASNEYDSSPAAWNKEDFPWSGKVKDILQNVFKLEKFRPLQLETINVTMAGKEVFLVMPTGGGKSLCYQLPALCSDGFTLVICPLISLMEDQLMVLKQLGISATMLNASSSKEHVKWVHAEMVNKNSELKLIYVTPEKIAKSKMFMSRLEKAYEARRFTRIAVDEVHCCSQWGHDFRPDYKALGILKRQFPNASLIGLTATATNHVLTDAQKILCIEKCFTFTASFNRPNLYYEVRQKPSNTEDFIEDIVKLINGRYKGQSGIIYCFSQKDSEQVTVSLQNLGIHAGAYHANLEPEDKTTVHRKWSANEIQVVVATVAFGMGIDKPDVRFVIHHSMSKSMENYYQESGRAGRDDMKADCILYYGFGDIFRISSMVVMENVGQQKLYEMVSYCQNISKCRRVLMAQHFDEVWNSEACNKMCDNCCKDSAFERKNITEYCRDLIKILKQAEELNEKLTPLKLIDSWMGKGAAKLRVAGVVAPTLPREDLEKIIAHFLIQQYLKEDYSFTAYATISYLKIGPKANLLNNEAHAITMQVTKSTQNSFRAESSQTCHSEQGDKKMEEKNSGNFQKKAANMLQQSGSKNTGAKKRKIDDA

Q: With `Cc1c(N=C2C=C(Br)C(=O)C(Br)=C2)c(=O)n(-c2ccccc2)n1C` as the molecule, how does the Potency read?
A: The Potency was active: 22.4 µM.

Q: With `Cc1cnc(CNc2nc(-c3ccc(N(C)C)cc3)nc3ccccc23)cn1` as the molecule, how does the Potency read?
A: The Potency was inconclusive: 35.5 µM [inhibitor, single point].

Q: How did the Potency turn out when `COc1ccccc1NC(=O)c1cc(Br)ccc1Cl` was run?
A: The Potency was inconclusive: 35.5 µM [inhibitor, single point].

Q: Which Potency does the source give for `CCCCCCCCCCCCCCCCCCc1ccc(C(=O)/C=C/C(=O)O)cc1` here?
A: The Potency was inconclusive: 31.6 µM [inhibitor, partial curve].

Q: `CC(C)C[C@H](NC(=O)[C@@H]1Cc2ccccc2CN1C(=O)OC(C)(C)C)C(=O)NCC1CCC(C(=O)O)CC1` (stereo not given in full) was tested. Which Potency did it give?
A: Its Potency is “inactive”.

Q: For `[O-]/[N+](=C/c1ccc(F)cc1)c1ccccc1`, which Potency is on record?
A: The Potency was inconclusive: 0.224 µM [inhibitor, full curve].

Q: For `CCN(CC)C(=O)C(=O)c1cccn1-c1cccc(OC)c1C#N`, which Potency is on record?
A: The Potency was inconclusive: 0.158 µM [inhibitor, full curve, poor fit].

Q: How did the Potency turn out when `CC(CCc1ccccc1)NC(=O)COC(=O)C1CCC(C(C)(C)C)CC1` (stereo not given) was run?
A: The Potency was inconclusive: 0.1 µM [inhibitor, full curve, poor fit].

Q: `Cc1ccc(NC(=O)COc2cccc(/C=C3\SC(=S)N(CCC(=O)O)C3=O)c2)cc1Cl` was tested. Which Potency did it give?
A: The Potency was inconclusive: 39.8 µM [inhibitor, single point].

Q: `O=C(/C=C\c1ccccc1)c1ccccc1O` was tested. Which outcome did it give?
A: Its outcome is “inactive [at 11.5 µM]”.

Q: For `CC1CCCC(C)N1C(=O)COC(=O)c1ccc[nH]c1=O` (stereo not given), which Potency is on record?
A: The Potency was inconclusive: 0.891 µM [inhibitor, single point].

Q: For `O=C(Nc1sc2c(c1C(=O)NCc1cccnc1)CCCC2)c1ccco1`, which Potency is on record?
A: Its Potency is inconclusive: 39.8 µM [inhibitor, single point].

Q: Which Potency does the source give for `CCc1ccc(C2=C/C(=C/c3cccnc3)C(=O)O2)cc1` here?
A: The Potency was inconclusive: 3.98 µM [inhibitor, single point].

Q: How did the Potency turn out when `COc1cc(/C=N/NC(=O)CSc2cc(C)c(Br)cc2C)ccc1O` was run?
A: Its Potency is “inactive”.

Q: For `Cc1noc(/C=C/c2ccco2)c1S(=O)(=O)N1CCC(C(=O)N(C)Cc2ccccc2)CC1`, which Potency is on record?
A: The Potency was inconclusive: 35.5 µM [inhibitor, single point].

Q: Which Potency does the source give for `Cc1cccc2cc(C3CC(c4ccco4)=NN3S(=O)(=O)c3ccccc3)c(Cl)nc12` (stereo not given) here?
A: Its Potency is active: 28.2 µM.

Q: For `O=C(Nc1ccc(Br)cn1)c1coc(=O)c(Br)c1`, which Potency is on record?
A: The Potency was inconclusive: 35.5 µM [inhibitor, single point].

Q: With `O=CN1CCN(C(=O)Cc2ccc([N+](=O)[O-])cc2)CC1` as the molecule, how does the Potency read?
A: Its Potency is inconclusive: 39.8 µM [inhibitor, single point].

Q: `Cc1cccc(Nc2nc(N)c([N+](=O)[O-])c(NCc3ccco3)n2)c1` was tested. Which Potency did it give?
A: The Potency was “inactive”.

Q: For `CCOCCCNC(=O)/C(C#N)=C/c1ccc([N+](=O)[O-])o1`, which Potency is on record?
A: Its Potency is inconclusive: 39.8 µM [inhibitor, single point].

Q: Which Potency does the source give for `CCOC(=O)C1CCN(C(=O)Nc2ccc3nc(-c4ccco4)c(-c4ccco4)nc3c2)CC1` here?
A: Its Potency is active: 10 µM.

Q: With `COc1cc(OC)cc(C(=O)NCC(=O)OCC(=O)Nc2ncc(Cl)cc2Cl)c1` as the molecule, how does the Potency read?
A: The Potency was inconclusive: 39.8 µM [inhibitor, single point].

Q: How did the Potency turn out when `COc1cc(/C=N/N2C(=O)CSC2=S)ccc1O` was run?
A: Its Potency is inconclusive: 31.6 µM [inhibitor, single point].

Q: `NC[C@@H](O)c1ccc(O)c(O)c1` was tested. Which Potency did it give?
A: The Potency was active: 14.1 µM.

Q: For `COc1ccc2c(C(=O)CN3CCN(c4ccccc4)CC3)c[nH]c2c1`, which Potency is on record?
A: Its Potency is inconclusive: 35.5 µM [inhibitor, single point].

Q: Which Potency does the source give for `CC1CCN(C(=O)Nc2ccc3nsnc3c2)CC1` here?
A: Its Potency is “inactive”.

Q: For `Cc1ccc(OCC(=O)N/N=C\c2ccc(C)o2)c(C)c1`, which Potency is on record?
A: Its Potency is inconclusive: 39.8 µM [inhibitor, single point].

Q: With `CCOC(=O)Cc1nnc(NC(=O)CSc2ncc(-c3ccccc3)nn2)s1` as the molecule, how does the Potency read?
A: Its Potency is inconclusive: 10 µM [inhibitor, partial curve].

Q: `N#Cc1c(/N=C/c2ccco2)oc(-c2ccccc2)c1-c1ccccc1` was tested. Which Potency did it give?
A: Its Potency is “inactive”.

Q: How did the Potency turn out when `NCCNc1cccc2ccccc12` was run?
A: Its Potency is inconclusive: 39.8 µM [inhibitor, single point].

Q: Which Potency does the source give for `COC(=O)c1ccc(N2NC(=O)/C(=C/c3ccc(-c4ccc(Cl)c(C(=O)O)c4)o3)C2=O)cc1` here?
A: The Potency was inconclusive: 35.5 µM [inhibitor, single point].

Q: For `CC(Sc1nc2sc3c(c2c(=O)n1-c1ccccc1)CCCC3)C(=O)O` (stereo not given), which Potency is on record?
A: The Potency was “inactive”.

Q: Which Potency does the source give for `CCOc1ccc2nc(SCC(=O)N3c4ccccc4Sc4ccccc43)sc2c1` here?
A: Its Potency is “inactive”.

Q: `CC(C)(C)c1cc(C(=O)NNc2ccc(OC(F)(F)F)cc2)n(Cc2ccccc2)n1` was tested. Which Potency did it give?
A: The Potency was inconclusive: 35.5 µM [inhibitor, single point].

Q: How did the Potency turn out when `COCc1cc(Sc2ccc(Br)cc2)nc(-c2ccccc2)n1` was run?
A: Its Potency is inconclusive: 28.2 µM [inhibitor, single point].

Q: Which Potency does the source give for `Cc1coc2c1C(=O)C(=O)c1c-2ccc2c1CCCC2(C)C` here?
A: The Potency was inconclusive: 39.8 µM [inhibitor, single point].

Q: Which Potency does the source give for `O=C(Nc1cccc(F)c1)c1coc(=O)c(Br)c1` here?
A: Its Potency is inconclusive: 28.2 µM [inhibitor, single point].

Q: For `O=C(Cc1c(Cl)cccc1Cl)Nc1cccnc1`, which Potency is on record?
A: Its Potency is inconclusive: 7.08 µM [inhibitor, single point].

Q: Which Potency does the source give for `CC(=O)OCC1=C(C(=O)O)N2C(=O)C(NC(=O)c3ccc(COc4c(C)cccc4Cl)o3)C2SC1` (stereo not given) here?
A: The Potency was inconclusive: 39.8 µM [inhibitor, single point].

Q: For `O=C1C=CC(=O)N1CCCCCCN1C(=O)C=CC1=O`, which Potency is on record?
A: Its Potency is inconclusive: 39.8 µM [inhibitor, single point].

Q: For `CCC(Sc1nc(-c2ccccc2)c(C#N)c(=O)[nH]1)C(=O)Nc1nnc(C)s1` (stereo not given), which Potency is on record?
A: The Potency was “inactive”.

Q: How did the Potency turn out when `COc1cccc(/C=C/C(=O)OCC(=O)NCC2CCCO2)c1OC` (stereo not given) was run?
A: Its Potency is “inactive”.

Q: How did the Potency turn out when `Cc1ccc(N2NC(=O)/C(=C/C=C/c3ccco3)C2=O)cc1C` was run?
A: The Potency was inconclusive: 39.8 µM [inhibitor, partial curve].

Q: With `O=[N+]([O-])c1cc(C(F)(F)F)ccc1N1CCN(S(=O)(=O)c2ccc3ccccc3c2)CC1` as the molecule, how does the Potency read?
A: Its Potency is inconclusive: 35.5 µM [inhibitor, partial curve, poor fit].

Q: How did the Potency turn out when `OC/C=C/c1ccc(O)c(O)c1` was run?
A: The Potency was inconclusive: 39.8 µM [inhibitor, single point].

Q: `COc1ccc2c(c1)c1c(n2C(C)=O)C(OC(C)=O)=NCC1` was tested. Which Potency did it give?
A: Its Potency is “inactive”.

Q: For `COc1cccc(Nc2ncc3ncc(=O)n(CCc4ccccc4)c3n2)c1`, which Potency is on record?
A: The Potency was inconclusive: 6.31 µM [inhibitor, single point].

Q: For `CC(C)(C)NC(=O)C(c1ccncc1)N(C(=O)C1CSC(=O)C1)c1ccccc1` (stereo not given), which Potency is on record?
A: The Potency was “inactive”.

Q: With `O=C(O)CC(C(=O)O)N1C(=O)/C(=C/C=C/c2ccco2)SC1=S` (stereo not given) as the molecule, how does the Potency read?
A: Its Potency is active: 3.98 µM.

Q: Which Potency does the source give for `CC(=O)NCCNc1nc(-c2ccc(N(C)C)cc2)nc2ccccc12` here?
A: The Potency was inconclusive: 35.5 µM [inhibitor, single point].

Q: `COc1ccc(NC(=O)c2noc3c2CCC3)cc1` was tested. Which Potency did it give?
A: Its Potency is inconclusive: 39.8 µM [inhibitor, single point].

Q: For `Cc1nc(-c2ccc(O)c(O)c2)cs1`, which Potency is on record?
A: The Potency was inconclusive: 10 µM [inhibitor, partial curve].

Q: With `CC(C)OC(=O)CSc1nc2cccnc2n1-c1ccc(F)cc1` as the molecule, how does the Potency read?
A: Its Potency is inconclusive: 6.31 µM [inhibitor, single point].

Q: Which Potency does the source give for `c1ccc2oc(-c3[nH]ncc3CN3CCSCC3)cc2c1` here?
A: The Potency was inconclusive: 25.1 µM [inhibitor, partial curve, poor fit].

Q: For `CC(C)(C)C(=O)NCCCc1nc2ccccc2n1CCCOc1ccc(Cl)cc1`, which Potency is on record?
A: The Potency was inconclusive: 0.794 µM [inhibitor, full curve].

Q: How did the Potency turn out when `COc1cccc2c1CCCC2CCCN1CCN(C2CCCCC2)CC1` (stereo not given) was run?
A: Its Potency is “inactive”.

Q: How did the Potency turn out when `Cc1cc(C(=O)Nc2sc(C)c(C)c2C#N)no1` was run?
A: The Potency was “inactive”.

Q: For `O=[N+]([O-])c1cc(S(=O)(=O)N2CCCC2)ccc1N/N=C1/CCCc2ccccc21`, which Potency is on record?
A: Its Potency is inconclusive: 3.98 µM [inhibitor, partial curve].

Q: With `C=CCn1c(NC(=O)c2ccc(Br)o2)c(S(=O)(=O)c2ccccc2)c2nc3ccccc3nc21` as the molecule, how does the Potency read?
A: Its Potency is inconclusive: 35.5 µM [inhibitor, single point].

Q: With `CCOC(=O)c1ccccc1NC(=O)c1ccc(N(C)S(C)(=O)=O)cc1` as the molecule, how does the Potency read?
A: Its Potency is inconclusive: 0.158 µM [inhibitor, full curve, poor fit].

Q: Which Potency does the source give for `Cc1ccc(C)c(-c2nc3ccc(N)cc3[nH]2)c1` here?
A: Its Potency is inconclusive: 0.0447 µM [inhibitor, full curve].

Q: `CCCc1cc(=O)oc2cc(C)c(CN3CCCC3)c(O)c12` was tested. Which Potency did it give?
A: The Potency was active: 12.6 µM.

Q: How did the Potency turn out when `C=C1C=CS(=O)(=O)N(C(C)C(=O)OC)C1` (stereo not given) was run?
A: Its Potency is inconclusive: 35.5 µM [inhibitor, single point].

Q: `CC(C)OC(=O)[C@@H]1CC[C@H](C)[C@@H](CCCCO)O1` was tested. Which Potency did it give?
A: Its Potency is “inactive”.

Q: How did the Potency turn out when `O=C(NCc1ccc2c(c1)OCO2)c1c(F)c(F)c(F)c(F)c1F` was run?
A: The Potency was inconclusive: 0.355 µM [inhibitor, partial curve, poor fit].

Q: Which Potency does the source give for `Cc1cc(/C=N/Nc2ccc([N+](=O)[O-])cn2)c(C)n1-c1ccc(C(=O)O)cc1` here?
A: The Potency was active: 17.8 µM.

Q: `CC(C)OC(=O)CSc1nc2ncc(Cl)cc2[nH]1` was tested. Which Potency did it give?
A: The Potency was inconclusive: 0.224 µM [inhibitor, full curve].

Q: With `OC1OC[C@H](O)[C@@H](O)[C@H]1O` (stereo not given in full) as the molecule, how does the Potency read?
A: Its Potency is “inactive”.

Q: For `O=C(CCc1ccc(S(=O)(=O)N2CCOCC2)cc1)Nc1cc(Cl)ccc1N1CCOCC1`, which Potency is on record?
A: Its Potency is inconclusive: 39.8 µM [inhibitor, single point].

Q: Which Potency does the source give for `CSCC[C@H](NC(=O)[C@H](CC(C)C)NC(=O)[C@@H]1CCCN1C(=O)[C@H](Cc1ccccc1)NC(=O)[C@H](Cc1ccccc1)NC(=O)[C@@H]1CCC(=O)N1)C(N)=O` here?
A: Its Potency is “inactive”.
